No constants are given. Whether binding was seen depends on the method and setting.

Consider 1 molecule from article PMC11696143, “A higher order PUF complex is central to regulation of C. elegans germline stem cells” (Nature Communications, 2024).

The target of experiment [1] is T1, C. elegans FBF-2 RBD (residues 164-575) (C. elegans) (UniProt Q09312).
T1 sequence: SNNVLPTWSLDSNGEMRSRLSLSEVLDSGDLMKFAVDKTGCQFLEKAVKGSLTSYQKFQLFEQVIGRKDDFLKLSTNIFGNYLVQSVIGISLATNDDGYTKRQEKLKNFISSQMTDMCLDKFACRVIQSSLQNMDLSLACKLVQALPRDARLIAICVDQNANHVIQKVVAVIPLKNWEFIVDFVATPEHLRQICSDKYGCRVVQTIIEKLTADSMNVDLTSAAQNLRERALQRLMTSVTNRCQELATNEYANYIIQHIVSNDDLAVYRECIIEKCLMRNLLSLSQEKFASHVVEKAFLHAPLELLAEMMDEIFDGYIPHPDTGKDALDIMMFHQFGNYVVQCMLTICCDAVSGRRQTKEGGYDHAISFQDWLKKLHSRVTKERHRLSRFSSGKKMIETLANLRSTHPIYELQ
Kind of experiment: condition: LST-1 100-400 µM titrated into FBF-2 10-30 µM; ITC; LST-1 variant (100-400 µM) titrated from the syringe into the cell with FBF-2 (10-30 µM); 20 °C; 20 mM HEPES pH 7.4, 150 mM NaCl, 0.5 mM TCEP; no RNA; one-site model; apparent constants; two technical replicates; both purified.

For experiment [2], the target named is T2, C. elegans FBF-2 RBD+CT (residues 164-632) (C. elegans) (UniProt Q09312).
T2 sequence: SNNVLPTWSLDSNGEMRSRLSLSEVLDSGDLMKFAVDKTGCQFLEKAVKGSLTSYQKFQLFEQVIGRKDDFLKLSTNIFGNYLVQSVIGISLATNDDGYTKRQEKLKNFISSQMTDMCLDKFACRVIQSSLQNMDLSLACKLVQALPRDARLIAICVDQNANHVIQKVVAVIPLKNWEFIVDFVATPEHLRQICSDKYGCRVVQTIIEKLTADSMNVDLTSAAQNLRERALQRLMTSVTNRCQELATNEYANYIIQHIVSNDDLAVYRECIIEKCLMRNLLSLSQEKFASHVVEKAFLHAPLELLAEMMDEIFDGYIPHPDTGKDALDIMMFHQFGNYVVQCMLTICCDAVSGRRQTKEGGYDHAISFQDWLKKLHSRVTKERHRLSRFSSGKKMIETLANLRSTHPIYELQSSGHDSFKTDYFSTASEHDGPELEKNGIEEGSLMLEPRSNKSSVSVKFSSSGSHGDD
Described as above.

B1: LST-1^19–98(A^m B^m): K32A, L35A, K80A, L83A, Y85A (domain or fragment, UniProt P91820 19-98)
chain: STIAYSKSQHEAPAQLAQLRSEIKPLIPLNQPSNFWESSQDSGVLSSLSSSPQQRSGLRSQALHATAIEKNKRVRAMIPQ
B1: the binding entry in experiment [1] and in experiment [2] was “no binding” in each case.
